Primary screen of a compound library

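Whole-cell assay for inhibitors of Mycobacterium tuberculosis growth, labelled Cornell in the record; the read-out is not stated. The concentration is filed as 10 mM, unlikely as a test dose, so the dose is not known. Higher means stronger inhibition (inferred from two other growth screens of the library). Of about 53,000 compounds tested this way, about 900 (1.7%) reached 50% or more in at least one test.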

The filed quantity is “Percent Effect” (%).
The record does not define 0% and 100%; most values in the screen are far below 50% and negative numbers occur (in some assays of this library far below -100).
Compounds were drawn at random from those tested, without regard to their results.

| Compound | effect |
|---|---|
| `CC(NC(=O)CCCn1cnc2ccccc2c1=O)c1ncn[nH]1` (centres unmarked) | 10.11 |
| `CCc1ccc(NC(=O)C2CCN(C(=O)COC)CC2)cc1` | -8.626 |
| `CN(C)[C@H]1CCCCN(C(=O)CCc2csc(N)n2)C1` | -24.8 |
| `Cc1nn(C)c(Cl)c1C1CCCN1C(=O)c1cnc[nH]1` (centres unmarked) | 8.572 |
| `CS(=O)(=O)NCc1ncn2c1CN(Cc1cccs1)CCC2.O=C(O)C(F)(F)F.O=C(O)C(F)(F)F` | 12.75 |
| `O=C(Nc1cn[nH]c1)N(CCCO)C1CCc2ccccc21` (centres unmarked) | 9.004 |
| `Cc1ccc(CN2CCN(Cc3ccc(N(C)C)nc3)CC2=O)cc1C` | 43.61 |
| `Cc1cccc(-n2cnc(Cl)c2C(=O)O)c1` | -22.61 |
| `COc1cc(OC)nc(N2CCC3(CC2)OCCCC3O)n1` (centres unmarked) | 1.595 |
| `Cl.O=C1CC2(CCNCC2)C(=O)N1Cc1ccc(F)cc1` | -48.08 |
| `O=c1c(CN2CCCCCC2)coc(O)c1CN1CCCCCC1` | 30.77 |
| `CC(=O)N1CCCN(C(=O)NC(C)Cn2ccnc2)CC1` (centres unmarked) | -1.749 |
| `CCC1CCCCCN1C(=O)c1cc(C#N)c(SC)[nH]c1=O` (centres unmarked) | -5.356 |
| `COc1ccc2[nH]c(CNc3cc(C4CCNCC4)nc(C)n3)cc2c1` | 70.58 |
| `O=C(NCc1ccncc1)N1CC(Cc2ccccc2F)C1` | 8.731 |
| `Cc1cc(C)cc(CNc2ccc(C(=O)NC(C)CO)cc2)c1` (centres unmarked) | 4.451 |
| `CCc1cc(N(C)Cc2ccncn2)n2nc(C)c(C)c2n1` | 59.71 |
| `C1CCN(CCOC2CCNCC2)C1` | 8.234 |
| `CN1CCN([C@@H]2CCN(CC3CCOC3)[C@H]2Cc2cnn(C)c2)CC1.O=C(O)C(F)(F)F.O=C(O)C(F)(F)F.O=C(O)C(F)(F)F` (some centres unmarked) | -8.182 |
| `CC(=O)Nc1cc(F)c(S(=O)(=O)N(C)CC2CCC2)c(F)c1` | 48.56 |
| `COc1ccc(F)c(CN2CCCC(c3cc(O)nc(C)n3)C2)c1` (centres unmarked) | 28.23 |
| `Cc1cccc(OCc2ccc(C(=O)N3N=CCC3(O)C(F)(F)F)o2)c1` (centres unmarked) | 29.06 |
| `Cc1ccc(CNC(=O)c2c[nH]nc2NC(=O)COCC2CC2)cc1` | 29.98 |
| `COc1ccc(CN2CCCC(Nc3cccc(F)c3)C2)cc1O` (centres unmarked) | 32.71 |
| `Cc1noc(C)c1CN1CCC[C@]2(C[C@@H](Oc3ccccn3)CO2)C1.O=C(O)C(F)(F)F.O=C(O)C(F)(F)F` | 8.044 |
| `[H][C@@]12CCN(Cc3ccsc3)[C@]1([H])CC[C@H](C(=O)NC1CC1)O2` | -9.803 |
| `N#Cc1c(F)cccc1N1CCN(C(=O)Nc2nncs2)CC1` | -12.63 |
| `Cc1cc(NCc2ccccc2CN2CCCCC2)n2ncnc2n1` | 3.014 |
| `CC(C)OCCCNC(=O)c1c(-n2cnnn2)sc2c1CCCC2` | 22.05 |
| `COC(=O)CCNC(=O)c1coc(COc2ccc(F)cc2)n1` | 35.85 |
| `CCN1CCN(C(=O)COCc2nc(-c3ccncc3)no2)CC1` | -3.1 |
| `O=C(Cc1cccnc1)N1CCC2(CC1)CCN(C1CCOC1)C2.O=C(O)C(F)(F)F.O=C(O)C(F)(F)F` (centres unmarked) | -38.23 |
| `O=c1c(NCCc2ccc(O)cc2)c(NCc2ccccn2)c1=O` | 14.42 |
| `CC(=O)N1CCOCC2(CCN(Cc3ccc(C)s3)CC2)C1.O=C(O)C(F)(F)F` | 26.42 |
| `CC(=O)Nc1cccc([C@H]2C[C@@H](NC(C)=O)CCO2)c1` | 12.05 |
| `COCC(C)NC(=O)N(C)Cc1cc(C)on1` (centres unmarked) | 29.58 |
| `O=C(COc1ccc(Cl)cc1)Nc1cnc(N2CCOCC2)nc1` | -7.393 |
| `O=C(CCCNc1ncccn1)N1CCCC(n2cncn2)C1` (centres unmarked) | 13.17 |
| `CCO[C@H]1CN(C)C[C@@H]1NC(=O)c1cc(C)nc2ccc(C)cc12` | -20.51 |
| `CSCC(=O)N1CCCC(n2ccnc2C(C)C)C1` (centres unmarked) | 13.49 |
| `Cc1ccc(C2CSCCN2C(=O)c2ccncc2)cc1` (centres unmarked) | 8.598 |
| `O=C1NCCN1C1CCN(CC(O)c2ccccc2F)CC1` (centres unmarked) | 15.56 |
| `CN1CCOC(CNCC(=O)NCCc2ccc(F)cc2)C1` (centres unmarked) | 9.115 |
| `O=c1nc(SCc2ccc(Cl)cc2)c2c(n1CCO)CCC2` | -2.77 |
| `Clc1ccc(OCCNC2(c3ccc(Br)cc3)CCOCC2)cc1` | 68.56 |
| `Cc1cccc(OCCC(=O)N2CCN(S(=O)(=O)N(C)C)CC2)c1C` | 8.068 |
| `O=C1CCC(=O)N1Cc1ccc(C(=O)N2CCCC2c2cccs2)cc1` (centres unmarked) | -6.602 |
| `CC(C)[C@@H](C)NC1CCN(c2ccc(-n3ccnc3)cc2)CC1` | 29.57 |
| `O=C(c1ccnc(CC2COc3ccccc3C2)c1)N1CCCC1` (centres unmarked) | -21.17 |
| `[H][C@]12C[C@@H](CN3CCCC3)N(C)[C@@]1([H])CCN(C(=O)c1cnccn1)C2` | 0.9421 |
| `Cc1ccc(CS(=O)(=O)NCc2ccco2)cc1` | -44.28 |
| `Cc1nc(CN2CCCC2c2c(C)nn(C)c2Cl)oc1C` (centres unmarked) | -26 |
| `CCS(=O)(=O)N1CC(=O)N(CCOc2ccccc2)CC(O)C1` (centres unmarked) | 8.023 |
| `CN(C)[C@@H]1CN(C(=O)c2cc3cccc(F)c3[nH]2)C[C@H]1O` | 57.85 |
| `CN1C[C@@H](C(=O)NC(C)(C)C)[C@@]2(COc3ccc(F)cc3C2=O)C1` | 28.72 |
| `O=C(O)C(F)(F)F.O=C(O)C(F)(F)F.[H][C@@]12CCN(Cc3cnn(C)c3)[C@]1([H])CC[C@H](C(=O)NC1CC1)O2` | 13.68 |
| `OCC1CCCCN1c1ccc(-c2nc(-c3ccccc3F)no2)cn1` (centres unmarked) | 15.78 |
| `CC(C)c1nsc(N2CCn3c(nnc3-c3ccccc3)C2)n1` | -7.683 |
| `CN(C)C1CCN(C(=O)c2ccc(Cn3ccccc3=O)o2)CC1` | 5.144 |
| `Cc1nc(-c2cn(CCN)nn2)n(-c2ccc(C(F)(F)F)cc2)n1` | 27.49 |
| `CC(=O)N1CCC(n2ccc(-c3cnc(NCC(C)C)nc3)n2)CC1` | 21.11 |
| `O=C(O)C(F)(F)F.O=C(O)C(F)(F)F.c1cncc(-c2nnn3c2COCC(CNCC2CCOCC2)C3)c1` (centres unmarked) | 18.77 |
| `CCc1ncc2c(n1)CN(CC1CCCCO1)CC2` (centres unmarked) | -15.52 |
| `CCc1nsc(N2CCCN(C(=O)c3ccsc3)CC2)n1` | -24.2 |
| `O=C(N[C@@H]1CCNC[C@H]1O)c1ccc(O)c(Cl)c1` | 8.422 |
| `CC(C)[C@@H](C)NC(=O)N1CCn2nc(C(=O)NCCN(C)C)cc2C1` | 0.4047 |
| `O=C(CO)N1CCC(CCc2ccnc(Nc3cnccn3)c2)CC1` | 6.177 |
| `CCCN(Cc1cccnc1)Cc1ccc(C2CCCCO2)o1` (centres unmarked) | 36.46 |
| `CCOc1ccc(Cl)c(C(=O)N2CCN(c3ccncc3)CC2)n1` | 3.93 |
| `CS(=O)(=O)N1CCc2c(cccc2NC(=O)CC(F)(F)F)C1` | -12.98 |
| `COC(=O)c1ccc(-c2ccc(/C=C3\C(=O)NC(=N)N3C)o2)cc1` | -5.113 |
| `CCN1CCn2c(C)cnc2C12CCN(C(=O)COC)CC2.O=C(O)C(F)(F)F.O=C(O)C(F)(F)F` | -22.2 |
| `COc1ccc2c(c1)OCC(Cc1ccnc(N)n1)C2` (centres unmarked) | 20.46 |
| `[H][C@]12CCC[C@@]1(COCC(=O)N1CCCC1)CN(Cc1cc(C)on1)C2` | 8.01 |
| `c1ccc(-n2cc(CNCC3CCCN3c3cccnn3)nn2)cc1` (centres unmarked) | -28.23 |
| `Cc1ccc(C2CSCCN2C(=O)c2ccnc(N(C)C)c2)o1` (centres unmarked) | 2.883 |
| `O=C(CCc1ccc(Cl)s1)N1CCCC(n2cncn2)C1` (centres unmarked) | 16.93 |
| `[H][C@]12CC[C@]([H])(CN(C)C1)N(C(=O)c1ccc(OC)c(Cl)c1)C2` | -39.09 |
| `O=C(O)c1nnn(-c2cccc(C(F)(F)F)c2)c1-c1ccncc1` | 0.6572 |
| `CN(C)C(C(=O)N1CCN(S(N)(=O)=O)CC1)c1ccccc1F` (centres unmarked) | 4.152 |
| `Cc1nc2c(c(N3CC=CC3)n1)CCN(Cc1ccoc1)CC2` | 1.45 |
| `O=c1c(NCCCO)c(N2CCN(c3ccccc3)CC2)c1=O` | 37.08 |
| `CCn1nccc1CNC(=O)Cn1cc2c(n1)c(C)nn2C(C)C` | 14.83 |
| `O=c1nc(SCc2ccncc2)c2c(n1CCO)CCCC2` | -9.536 |
| `O=C(Nc1ccc(-n2cccn2)cc1)N1CCOCC(O)C1` (centres unmarked) | 12.61 |
| `CCCc1ncc(C(=O)c2ccc(OC)cc2)n1C` | -3.966 |

7 of the entries, repeated:

Compound,effect
CN(C)C1CCN(C(=O)c2ccc(Cn3ccccc3=O)o2)CC1,5.144
CN(C)C(C(=O)N1CCN(S(N)(=O)=O)CC1)c1ccccc1F (centres unmarked),4.152
O=C(CCc1ccc(Cl)s1)N1CCCC(n2cncn2)C1 (centres unmarked),16.93
CC(C)[C@@H](C)NC(=O)N1CCn2nc(C(=O)NCCN(C)C)cc2C1,0.4047
CC(C)OCCCNC(=O)c1c(-n2cnnn2)sc2c1CCCC2,22.05
Cc1ccc(C2CSCCN2C(=O)c2ccnc(N(C)C)c2)o1 (centres unmarked),2.883
Cc1ccc(C2CSCCN2C(=O)c2ccncc2)cc1 (centres unmarked),8.598

Measurements from “University of Dundee, Small-Polar-MMV Screening Library” (2021), ChEMBL document CHEMBL3988442.